According to publication PMC6928916:
Results are given in words; binding and its absence hold for the method and conditions named. Binding seen in cells or lysates may run through a third protein. Some results given as binding are weak or reduced against the parent protein; the word gives no strength.

Protein sequences, listed by entry. Tags and fused reporters are not part of them.
UniProt Q80WG5: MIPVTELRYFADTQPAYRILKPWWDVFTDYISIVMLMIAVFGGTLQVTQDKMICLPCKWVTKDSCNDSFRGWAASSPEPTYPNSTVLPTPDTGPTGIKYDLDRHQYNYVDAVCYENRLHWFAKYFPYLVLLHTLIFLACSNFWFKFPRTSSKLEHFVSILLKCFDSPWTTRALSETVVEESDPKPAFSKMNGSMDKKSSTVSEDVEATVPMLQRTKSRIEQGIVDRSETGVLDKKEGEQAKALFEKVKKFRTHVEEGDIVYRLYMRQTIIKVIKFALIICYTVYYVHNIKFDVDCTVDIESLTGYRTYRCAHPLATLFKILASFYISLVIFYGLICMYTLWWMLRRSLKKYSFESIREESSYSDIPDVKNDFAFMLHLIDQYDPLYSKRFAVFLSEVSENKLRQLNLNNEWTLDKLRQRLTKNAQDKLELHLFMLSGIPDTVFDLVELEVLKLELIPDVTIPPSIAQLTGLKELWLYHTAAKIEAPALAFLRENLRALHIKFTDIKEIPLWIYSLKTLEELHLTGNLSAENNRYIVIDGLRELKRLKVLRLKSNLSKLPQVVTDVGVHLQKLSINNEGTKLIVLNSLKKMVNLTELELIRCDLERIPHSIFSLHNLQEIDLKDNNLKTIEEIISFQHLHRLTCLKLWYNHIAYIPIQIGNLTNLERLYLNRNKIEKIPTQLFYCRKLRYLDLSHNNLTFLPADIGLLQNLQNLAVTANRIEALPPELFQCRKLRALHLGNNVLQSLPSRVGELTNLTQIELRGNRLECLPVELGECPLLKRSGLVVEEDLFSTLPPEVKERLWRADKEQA
UniProt Q66JT1: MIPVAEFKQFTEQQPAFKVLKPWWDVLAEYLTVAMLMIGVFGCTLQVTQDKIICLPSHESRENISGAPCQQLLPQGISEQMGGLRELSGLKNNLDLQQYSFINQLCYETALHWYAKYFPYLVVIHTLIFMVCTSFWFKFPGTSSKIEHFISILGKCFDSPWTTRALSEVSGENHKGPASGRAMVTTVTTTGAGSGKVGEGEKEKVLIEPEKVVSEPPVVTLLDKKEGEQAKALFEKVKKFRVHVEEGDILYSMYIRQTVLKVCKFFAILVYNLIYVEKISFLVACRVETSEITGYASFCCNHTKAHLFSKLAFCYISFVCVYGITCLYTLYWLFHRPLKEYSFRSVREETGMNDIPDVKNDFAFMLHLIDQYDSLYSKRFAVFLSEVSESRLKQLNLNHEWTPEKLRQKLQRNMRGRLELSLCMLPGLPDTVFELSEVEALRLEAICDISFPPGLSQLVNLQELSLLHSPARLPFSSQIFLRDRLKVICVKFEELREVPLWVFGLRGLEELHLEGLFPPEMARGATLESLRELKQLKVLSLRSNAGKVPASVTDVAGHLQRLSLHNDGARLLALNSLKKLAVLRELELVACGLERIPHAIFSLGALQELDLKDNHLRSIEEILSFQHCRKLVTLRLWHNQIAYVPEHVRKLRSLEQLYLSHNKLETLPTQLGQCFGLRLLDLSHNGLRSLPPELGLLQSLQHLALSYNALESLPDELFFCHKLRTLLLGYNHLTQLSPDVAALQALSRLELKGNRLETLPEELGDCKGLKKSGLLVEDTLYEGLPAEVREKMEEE
UniProt Q8R502: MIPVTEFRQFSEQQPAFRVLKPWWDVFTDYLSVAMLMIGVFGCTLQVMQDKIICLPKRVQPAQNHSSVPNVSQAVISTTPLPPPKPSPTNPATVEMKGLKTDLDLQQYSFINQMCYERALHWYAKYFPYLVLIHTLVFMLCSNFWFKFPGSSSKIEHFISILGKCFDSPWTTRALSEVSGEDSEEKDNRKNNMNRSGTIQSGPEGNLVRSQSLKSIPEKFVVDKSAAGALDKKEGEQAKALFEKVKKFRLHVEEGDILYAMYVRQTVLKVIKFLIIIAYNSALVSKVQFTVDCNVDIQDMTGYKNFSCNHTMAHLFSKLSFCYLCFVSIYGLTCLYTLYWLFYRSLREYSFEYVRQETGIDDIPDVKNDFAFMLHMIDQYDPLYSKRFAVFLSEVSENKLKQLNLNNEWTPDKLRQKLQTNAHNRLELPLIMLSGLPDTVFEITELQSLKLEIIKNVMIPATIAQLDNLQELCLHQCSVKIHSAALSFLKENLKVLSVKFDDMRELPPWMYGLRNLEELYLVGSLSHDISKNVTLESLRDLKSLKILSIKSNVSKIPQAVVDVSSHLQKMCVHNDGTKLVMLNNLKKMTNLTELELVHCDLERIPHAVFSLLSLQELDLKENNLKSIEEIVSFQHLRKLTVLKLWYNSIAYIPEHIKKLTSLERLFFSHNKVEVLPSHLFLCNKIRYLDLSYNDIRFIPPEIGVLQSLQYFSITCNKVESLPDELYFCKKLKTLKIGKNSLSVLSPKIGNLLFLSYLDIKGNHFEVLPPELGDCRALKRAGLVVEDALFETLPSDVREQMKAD
UniProt Q8BGR2: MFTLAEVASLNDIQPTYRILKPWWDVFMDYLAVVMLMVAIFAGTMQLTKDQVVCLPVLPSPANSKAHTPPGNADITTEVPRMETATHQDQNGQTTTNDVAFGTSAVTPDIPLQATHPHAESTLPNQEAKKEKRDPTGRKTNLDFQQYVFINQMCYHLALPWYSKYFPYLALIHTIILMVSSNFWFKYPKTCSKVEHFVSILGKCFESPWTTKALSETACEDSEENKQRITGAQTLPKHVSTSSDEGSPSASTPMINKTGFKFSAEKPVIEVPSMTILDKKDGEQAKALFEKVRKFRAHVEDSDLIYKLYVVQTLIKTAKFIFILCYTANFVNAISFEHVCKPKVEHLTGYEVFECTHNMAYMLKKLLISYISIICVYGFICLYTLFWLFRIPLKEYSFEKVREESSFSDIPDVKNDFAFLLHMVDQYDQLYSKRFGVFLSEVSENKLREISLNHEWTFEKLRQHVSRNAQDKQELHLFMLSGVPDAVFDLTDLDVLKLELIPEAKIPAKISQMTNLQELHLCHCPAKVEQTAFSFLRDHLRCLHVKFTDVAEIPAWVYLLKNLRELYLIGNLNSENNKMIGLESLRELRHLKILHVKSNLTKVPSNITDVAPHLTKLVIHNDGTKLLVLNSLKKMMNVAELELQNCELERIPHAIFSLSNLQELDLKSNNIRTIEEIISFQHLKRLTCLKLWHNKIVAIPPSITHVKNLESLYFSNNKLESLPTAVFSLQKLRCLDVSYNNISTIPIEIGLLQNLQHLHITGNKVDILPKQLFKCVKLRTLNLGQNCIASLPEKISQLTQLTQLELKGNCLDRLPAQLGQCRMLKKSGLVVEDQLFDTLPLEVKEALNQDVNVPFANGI

B1: LRRC8B (protein, UniProt Q5DU41 1-803)
chain: MITLTELKCLADAQSSYHILKPWWDVFWYYITLIMLLVAVLAGALQLTQSRVLCCLPCKVEFDNQCAVPWDLLKGSENASSNSGLLLPLPLRIQNDLHRQQYSYIDAVCYEKQLHWFAKFFPYLVLLHTLIFAACSNFWLHYPSTSSRLEHFVSILHKCFDSPWTTRALSETVAEQSVRPLKLSKSKTLLSTSGGSADIDASKQSLPYPQPGLESPGIESPTSSVLDKKEGEQAKAIFEKVKRFRLHVEQRDIIYRVYLKQIIVKVILFVLIITYVPYFLSYITLEIDCSIDVQAFTGYKRYQCVYSLAEIFKVLASFYVILVMLYGLTSSYSLWWMLRSSLKQYSFEALREKSNYSDIPDVKNDFAFILHLADQYDPLYSKRFSIFLSEVSENKLKQINLNNEWTVERLKSKLVKNSQDKVELHLFMLNGLPDNVFELTEMEVLSLELIPEVKLPAAVAQLVNLRELHVYHSSLVVDHPALAFLEENLRILRLKFTEMGKIPRWVFHLKNLKELYLSGCVLPEQLSSLHLEGFQDLKNLRTLYLKSSLSRIPQVVTDLLPSLQKLSLDNEGSKLVVLNNLKKMVNLKSLELLSCDLERIPHSIFSLNNLHELDLKENNLKTVEEIISFQHLPSLSCLKLWHNNIAYIPAQIGALSNLEQLFLGHNNIESLPLQLFLCTKLHYLDLSYNHLTFIPEEIQYLTNLQYFAVTNNNIEMLPDGLFQCKKLQCLLLGRNSLTDLSPLVGELSNLTHLELTGNYLETLPVELEGCQSLKRSCLIVEDSLLNSLPLPVAERLQTCLDKC

Target: LRRC8A (mouse (endogenous in C2C12 and 3T3)) (UniProt Q80WG5)
Assay: co-IP; 15 μg LRRC8A antibody added to cleared C2C12 or 3T3 lysate with 2 mg total protein (150 mM NaCl, 50 mM Tris-HCl pH 7.5, 1% NP-40, 0.5% sodium deoxycholate), Protein A Dynabeads overnight at 4 °C, four washes, immunoblot; LRRC8A-deficient cells as control

| binding | Molecule |
| --- | --- |
| binds | LRRC8E (from UniProt Q66JT1 1-795) |
| binds | LRRC8C (from UniProt Q8R502 1-803) |
| binds | LRRC8D (from UniProt Q8BGR2 1-859) |
| binds | B1 |
